Measured values: article PMC9935901, “B-lymphoid tyrosine kinase-mediated FAM83A phosphorylation elevates pancreatic tumorigenesis through interacting with β-catenin” (Signal Transduction and Targeted Therapy, 2023)
Results are given in words; binding and its absence hold for the method and conditions named. Binding seen in cells or lysates may run through a third protein. Some binding calls cover weakened binding; strength is not graded here. For some of these results: Tags and fused reporters may be left off the sequences shown.

Sequences of proteins named here, by UniProt entry; tags and fusion partners are left off.
UniProt P35222: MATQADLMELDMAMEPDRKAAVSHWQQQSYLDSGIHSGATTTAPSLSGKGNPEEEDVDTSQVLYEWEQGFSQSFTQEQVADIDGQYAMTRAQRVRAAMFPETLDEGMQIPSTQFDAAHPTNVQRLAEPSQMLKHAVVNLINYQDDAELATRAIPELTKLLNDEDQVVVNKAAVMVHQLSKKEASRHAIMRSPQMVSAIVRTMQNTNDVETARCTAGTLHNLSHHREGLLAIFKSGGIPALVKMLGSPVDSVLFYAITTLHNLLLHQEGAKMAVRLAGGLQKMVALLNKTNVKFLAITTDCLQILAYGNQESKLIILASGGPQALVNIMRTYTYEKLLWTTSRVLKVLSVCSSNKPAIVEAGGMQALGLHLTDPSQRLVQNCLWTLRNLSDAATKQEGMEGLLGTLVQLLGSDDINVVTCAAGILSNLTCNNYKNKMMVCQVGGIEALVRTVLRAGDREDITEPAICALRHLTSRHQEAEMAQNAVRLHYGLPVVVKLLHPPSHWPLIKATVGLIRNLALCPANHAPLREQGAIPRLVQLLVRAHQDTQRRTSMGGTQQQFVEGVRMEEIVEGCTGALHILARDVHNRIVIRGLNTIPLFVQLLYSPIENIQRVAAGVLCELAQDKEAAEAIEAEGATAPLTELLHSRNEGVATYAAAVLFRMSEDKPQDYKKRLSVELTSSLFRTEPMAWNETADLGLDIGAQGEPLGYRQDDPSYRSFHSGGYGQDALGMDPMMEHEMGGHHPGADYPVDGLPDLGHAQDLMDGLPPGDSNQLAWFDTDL
UniProt Q9NQB0: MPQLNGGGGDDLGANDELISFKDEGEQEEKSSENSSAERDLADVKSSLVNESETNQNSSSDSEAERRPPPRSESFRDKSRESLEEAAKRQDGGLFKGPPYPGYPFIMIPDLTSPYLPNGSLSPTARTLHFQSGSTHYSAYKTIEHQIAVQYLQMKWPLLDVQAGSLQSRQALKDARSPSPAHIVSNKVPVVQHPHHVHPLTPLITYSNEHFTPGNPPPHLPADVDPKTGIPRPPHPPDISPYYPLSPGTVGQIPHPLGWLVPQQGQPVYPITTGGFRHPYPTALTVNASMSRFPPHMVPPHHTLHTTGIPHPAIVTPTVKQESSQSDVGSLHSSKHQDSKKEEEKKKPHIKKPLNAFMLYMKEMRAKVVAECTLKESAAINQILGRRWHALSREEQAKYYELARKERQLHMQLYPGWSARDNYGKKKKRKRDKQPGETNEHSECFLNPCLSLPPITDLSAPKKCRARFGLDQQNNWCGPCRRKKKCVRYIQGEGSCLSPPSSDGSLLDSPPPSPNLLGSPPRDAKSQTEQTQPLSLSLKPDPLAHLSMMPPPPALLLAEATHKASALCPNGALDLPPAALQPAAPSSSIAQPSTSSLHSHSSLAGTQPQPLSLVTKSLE
UniProt O15169: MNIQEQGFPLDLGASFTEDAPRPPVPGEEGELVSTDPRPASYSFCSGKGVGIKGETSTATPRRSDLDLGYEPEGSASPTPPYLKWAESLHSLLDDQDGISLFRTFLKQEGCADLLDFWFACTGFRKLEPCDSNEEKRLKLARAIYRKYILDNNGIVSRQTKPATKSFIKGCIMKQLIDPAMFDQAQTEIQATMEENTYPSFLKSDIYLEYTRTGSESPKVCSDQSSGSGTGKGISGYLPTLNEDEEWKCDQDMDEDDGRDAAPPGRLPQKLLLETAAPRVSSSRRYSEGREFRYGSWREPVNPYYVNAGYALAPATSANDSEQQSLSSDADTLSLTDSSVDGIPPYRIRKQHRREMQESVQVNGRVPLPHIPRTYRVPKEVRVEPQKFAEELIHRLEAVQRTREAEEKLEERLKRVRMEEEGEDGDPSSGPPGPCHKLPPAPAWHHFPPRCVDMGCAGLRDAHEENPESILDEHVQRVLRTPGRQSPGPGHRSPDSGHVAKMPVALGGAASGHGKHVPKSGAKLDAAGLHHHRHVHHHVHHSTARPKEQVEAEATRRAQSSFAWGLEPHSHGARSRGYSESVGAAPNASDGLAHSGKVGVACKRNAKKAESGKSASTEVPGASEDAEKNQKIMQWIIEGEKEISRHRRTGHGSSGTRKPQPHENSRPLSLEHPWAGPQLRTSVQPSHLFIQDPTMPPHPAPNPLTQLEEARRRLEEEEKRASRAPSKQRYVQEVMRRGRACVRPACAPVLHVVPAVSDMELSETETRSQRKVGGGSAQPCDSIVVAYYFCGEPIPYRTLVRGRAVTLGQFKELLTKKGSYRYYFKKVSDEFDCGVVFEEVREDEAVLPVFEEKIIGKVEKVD
UniProt P51451: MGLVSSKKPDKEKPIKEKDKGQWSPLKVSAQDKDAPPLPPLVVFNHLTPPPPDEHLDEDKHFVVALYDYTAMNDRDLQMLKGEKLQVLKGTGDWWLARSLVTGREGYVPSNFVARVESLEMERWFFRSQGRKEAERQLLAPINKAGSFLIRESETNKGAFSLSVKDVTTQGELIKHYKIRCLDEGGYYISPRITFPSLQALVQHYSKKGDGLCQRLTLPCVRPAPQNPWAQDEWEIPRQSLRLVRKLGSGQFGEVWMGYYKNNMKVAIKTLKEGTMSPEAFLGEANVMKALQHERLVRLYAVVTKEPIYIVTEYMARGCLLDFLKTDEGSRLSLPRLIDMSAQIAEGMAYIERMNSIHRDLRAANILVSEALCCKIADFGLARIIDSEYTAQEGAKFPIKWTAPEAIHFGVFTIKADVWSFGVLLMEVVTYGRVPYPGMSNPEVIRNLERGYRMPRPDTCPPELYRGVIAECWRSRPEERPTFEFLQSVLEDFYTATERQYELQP
UniProt Q13547: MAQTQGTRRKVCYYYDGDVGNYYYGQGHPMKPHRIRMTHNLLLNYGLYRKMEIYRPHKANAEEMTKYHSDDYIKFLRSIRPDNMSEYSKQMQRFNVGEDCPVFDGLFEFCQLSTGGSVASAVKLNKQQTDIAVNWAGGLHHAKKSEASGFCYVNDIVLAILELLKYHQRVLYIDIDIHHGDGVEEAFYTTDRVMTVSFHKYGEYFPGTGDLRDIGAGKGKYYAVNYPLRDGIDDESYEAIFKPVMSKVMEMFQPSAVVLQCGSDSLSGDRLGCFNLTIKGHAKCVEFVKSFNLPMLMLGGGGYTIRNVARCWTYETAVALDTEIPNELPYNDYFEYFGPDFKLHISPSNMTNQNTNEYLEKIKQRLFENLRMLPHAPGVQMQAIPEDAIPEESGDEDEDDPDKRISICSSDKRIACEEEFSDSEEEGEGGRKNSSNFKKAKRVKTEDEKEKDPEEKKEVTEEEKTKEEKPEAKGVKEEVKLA
UniProt Q92769: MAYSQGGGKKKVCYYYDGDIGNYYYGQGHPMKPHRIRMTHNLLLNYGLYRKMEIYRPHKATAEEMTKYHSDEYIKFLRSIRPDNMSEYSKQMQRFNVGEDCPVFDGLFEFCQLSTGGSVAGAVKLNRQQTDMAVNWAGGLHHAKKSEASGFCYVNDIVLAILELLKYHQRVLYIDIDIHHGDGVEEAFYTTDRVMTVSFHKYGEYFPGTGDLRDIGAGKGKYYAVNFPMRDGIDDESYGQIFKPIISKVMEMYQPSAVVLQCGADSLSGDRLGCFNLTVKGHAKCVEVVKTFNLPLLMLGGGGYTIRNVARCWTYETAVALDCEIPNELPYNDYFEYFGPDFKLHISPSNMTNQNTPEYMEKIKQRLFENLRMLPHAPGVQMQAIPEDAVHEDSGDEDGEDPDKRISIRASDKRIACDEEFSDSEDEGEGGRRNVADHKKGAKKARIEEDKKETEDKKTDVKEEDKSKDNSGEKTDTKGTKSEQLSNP

Experiments:
GFP-tagged β-catenin [1] = molecular target: GFP-tagged β-catenin (UniProt P35222); assay: co-IP; PANC-1 cells transfected with GFP-tagged β-catenin (with HA-tagged GSK3β or AXIN1, or endogenous partners); with or without FAM83A knockdown, BLK overexpression or knockdown
Flag-tagged FAM83A = molecular target: T1, Flag-tagged FAM83A (UniProt Q86UY5); assay: co-IP; HEK293T cells transfected for 48 h, IP and western blotting; with or without BLK, FAM83A wild type, Y138A or Y138D, saracatinib
T1 sequence: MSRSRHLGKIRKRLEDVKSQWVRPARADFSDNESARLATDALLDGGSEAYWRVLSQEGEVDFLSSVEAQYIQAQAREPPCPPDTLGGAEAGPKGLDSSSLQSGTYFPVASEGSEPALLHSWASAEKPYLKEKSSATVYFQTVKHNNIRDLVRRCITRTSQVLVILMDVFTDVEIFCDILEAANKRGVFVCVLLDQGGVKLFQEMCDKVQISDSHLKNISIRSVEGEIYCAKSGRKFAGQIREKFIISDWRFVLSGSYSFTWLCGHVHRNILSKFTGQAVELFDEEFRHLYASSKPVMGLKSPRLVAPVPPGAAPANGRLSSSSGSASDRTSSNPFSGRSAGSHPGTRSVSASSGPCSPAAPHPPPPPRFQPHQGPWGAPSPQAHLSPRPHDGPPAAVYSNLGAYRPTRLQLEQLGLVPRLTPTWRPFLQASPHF

GFP-tagged β-catenin [2] = molecular target: GFP-tagged β-catenin (UniProt P35222); assay: as above
[3] = molecular target: endogenous β-catenin (human (endogenous in PANC-1 and HEK293T)) (UniProt P35222); assay: co-IP; endogenous proteins in PANC-1 cell lysates, western blotting; with or without FAM83A knockdown, Flag-FAM83A overexpression or peptide treatment
[4] = molecular target: endogenous TCF4 (human (endogenous in PANC-1)) (UniProt Q9NQB0); assay: co-IP; HEK293T cells transfected for 48 h, IP and western blotting; with or without BLK, FAM83A wild type, Y138A or Y138D, saracatinib
[5] = molecular target: endogenous TCF4 (human (endogenous in PANC-1)) (UniProt Q9NQB0); assay: co-IP; endogenous proteins in PANC-1 cell lysates, western blotting; with or without FAM83A knockdown, Flag-FAM83A overexpression or peptide treatment

| binding (GFP-tagged β-catenin [1]) | binding [3] | binding [4] | binding [5] | Substance | also measured |
| --- | --- | --- | --- | --- | --- |
| binds | – | – | – | HA-tagged AXIN1 (from UniProt O15169 1-862) | – |
| – | – | – | – | HA-tagged BLK (from UniProt P51451 1-505) (enzyme) | binding (Flag-tagged FAM83A): binds |
| binds | binds | – | – | endogenous AXIN1 (from UniProt O15169 1-862) | binding (GFP-tagged β-catenin [2]): binds |
| – | binds | binds | binds | endogenous HDAC1 (from UniProt Q13547 1-482) | – |
| – | – | binds | binds | endogenous HDAC2 (from UniProt Q92769 1-488) | – |
